# Laboratory results from US20090081314A1, “Glycemic Control, Diabetes Treatment, and Other Treatments with Acetyl Cholinesterase Inhibitors” (priority 2007, published 2009).
# Like-named read-outs stand apart in the source and are kept apart here.
# [1] = patient twenty, one month of donepezil 5 mg orally daily
compound,measurement,setting,value
COc1cc2c(cc1OC)C(=O)C(CC1CCN(Cc3ccccc3)CC1)C2 (centres unmarked) [donepezil],triglycerides,"patient five, after one month of donepezil 5 mg daily, before greater than 200",less than 140 mg %
same,HDL cholesterol,"patient five, after one month of donepezil 5 mg daily, before less than 40",greater than 50
same,HDL cholesterol,"patient four, after one month of donepezil 5 mg daily, before 30",50
same,blood pressure,"patient four, after one month of donepezil 5 mg daily, before approx. 180/95",130/80
same,triglycerides,"patient four, after one month of donepezil 5 mg daily, before greater than 400",less than 180 mg %
same,fasting blood sugars,"patient four, during donepezil 5 mg daily, before greater than 140",less than 100 mg %
same,fasting blood sugars,"patient three, donepezil 5 mg daily, before greater than 125",less than 100 mg %
same,HDL cholesterol,"patient three, one month of donepezil 5 mg daily, before 43",54
same,triglycerides,"patient three, one month of donepezil 5 mg daily, before 171",129
same,systolic blood pressure,"patient three, one week of donepezil 5 mg daily, on losartan 80 mg",less than 120 mm Hg
same,fasting blood sugars,"patient twenty-one, after donepezil 5 mg daily",less than 110 mg %
same,HDL cholesterol,"patient twenty-one, one month of donepezil 5 mg daily, before 37",48
same,triglycerides,"patient twenty-one, one month of donepezil 5 mg daily, before 162",132
same,blood pressure,[1],130/70
same,fasting blood sugars,[1],less than 100 mg %
same,HDL cholesterol,"patient twenty, one month of donepezil 5 mg orally daily, before 37",52
same,triglycerides,"patient twenty, one month of donepezil 5 mg orally daily, before 171",93
